One substance from paper PMC12223778 can be followed below.

The chains behind the UniProt entries cited, without tags or fusion partners.
UniProt P51149: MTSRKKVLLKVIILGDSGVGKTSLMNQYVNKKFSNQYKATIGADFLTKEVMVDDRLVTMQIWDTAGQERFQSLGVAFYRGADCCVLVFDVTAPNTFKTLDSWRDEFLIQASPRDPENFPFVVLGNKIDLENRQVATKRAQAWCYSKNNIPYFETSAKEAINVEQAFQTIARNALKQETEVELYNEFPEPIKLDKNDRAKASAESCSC

No constants are given. Whether binding was seen depends on the method and setting. Binding seen in cells or lysates may run through a third protein. Here binding means that the protein was enriched with, or labelled near, the bait; the list need not be complete.

This experiment deals with T1, Sestrin2 (SESN2), stably overexpressed in HK-2 cells (LV-SESN2) (UniProt P58004).
T1 sequence: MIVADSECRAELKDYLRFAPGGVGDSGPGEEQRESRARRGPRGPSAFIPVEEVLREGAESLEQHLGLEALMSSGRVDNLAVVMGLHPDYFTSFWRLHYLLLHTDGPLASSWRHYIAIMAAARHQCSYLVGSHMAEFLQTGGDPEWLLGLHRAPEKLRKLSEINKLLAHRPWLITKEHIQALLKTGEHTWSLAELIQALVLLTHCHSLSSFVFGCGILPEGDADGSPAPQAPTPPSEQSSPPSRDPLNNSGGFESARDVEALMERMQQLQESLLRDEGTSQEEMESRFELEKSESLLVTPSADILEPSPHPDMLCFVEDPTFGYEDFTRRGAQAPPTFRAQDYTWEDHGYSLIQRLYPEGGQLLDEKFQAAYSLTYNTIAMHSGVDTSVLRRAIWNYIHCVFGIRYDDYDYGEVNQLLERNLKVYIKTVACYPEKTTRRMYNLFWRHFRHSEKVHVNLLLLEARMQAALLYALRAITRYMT
Description: affinity purification with mass spectrometry; anti-SESN2 antibody (IgG as control) on protein A magnetic beads, incubated with whole-cell lysates of SESN2-overexpressing HK-2 cells overnight at 4 °C; SDS-PAGE, Coomassie blue, MS.

Consider Rab-7a (from UniProt P51149 1-207), for which the binding result is listed as “binds”.
